Measured values reported in the supplement of paper PMC4862054.
Small differences around the control level are noise.

Key:
Assay in all cases: normalised response (% of control), CellTox Green; higher = less cell death (100 = DMSO, 0 = benzethonium chloride kill control)
Conditions in all cases: incubation time: 72 h
[1] = test system: BT-474
Method: (§1)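 DSRT, 72 h incubation, CellTox Green / CellTiter-Glo readout. Signal is normalised to DMSO and benzethonium chloride controls. Value is the normalised response at the lowest tested concentration.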

[2] = test system: BT-549
Method: as §1

[3] = test system: CAL-120
Method: as §1

[4] = test system: CAL-148
Method: as §1

[5] = test system: CAL-51
Method: as §1

[6] = test system: CAL-85-1
Method: as §1

[7] = test system: DU-4475
Method: as §1

[8] = test system: HCC1143
Method: as §1

[9] = test system: HCC1599
Method: as §1

[10] = test system: HCC1937
Method: as §1

[11] = test system: HDQ-P1
Method: as §1

[12] = test system: Hs578T
Method: as §1

[13] = test system: MCF-10A
Method: as §1

[14] = test system: MDA-MB-231
Method: as §1

[15] = test system: MDA-MB-436
Method: as §1

[16] = test system: MDA-MB-453
Method: as §1

[17] = test system: MDA-MB-468
Method: as §1

[18] = test system: MFM-223
Method: as §1

| SMILES | normalised response [1] | normalised response [2] | normalised response [3] | normalised response [4] | normalised response [5] | normalised response [6] | normalised response [7] | normalised response [8] | normalised response [9] | normalised response [10] | normalised response [11] | normalised response [12] | normalised response [13] | normalised response [14] | normalised response [15] | normalised response [16] | normalised response [17] | normalised response [18] |
| --- | --- | --- | --- | --- | --- | --- | --- | --- | --- | --- | --- | --- | --- | --- | --- | --- | --- | --- |
| CC[C@@H]1C(=O)OC[C@@H]1Cc1cncn1C [Pilocarpine] (4 nM) | 97.5% | 94.7% | 94.4% | 93.2% | 118% | 100% | 95.4% | 111% | 106% | 103% | 87.2% | 113% | 81.8% | 110% | 105% | 98.2% | 110% | 98.4% |
| O=S(=O)(c1cccc2cnccc12)N1CCCNCC1 [Fasudil] (5 nM) | 99.6% | 97.2% | 103% | 92.7% | 86.5% | 102% | 99.9% | 81.9% | 90.4% | 104% | 93.7% | – | 97.6% | 102% | 91.5% | 107% | 90.4% | 101% |
| COc1ncc(-c2ccc3nccc(-c4ccnnc4)c3c2)cc1NS(=O)(=O)c1ccc(F)cc1F (0.1 nM) | 102% | 95.2% | 99.7% | 104% | 127% | 101% | 106% | 105% | 113% | 113% | 105% | 109% | 107% | 114% | 91.1% | – | 62.6% | 80.8% |
| NC1(c2ccc(-c3nc4ccn5c(=O)[nH]nc5c4cc3-c3ccccc3)cc2)CCC1 [MK-2206] (0.1 nM) | 102% | 88.1% | 103% | 96% | 112% | 104% | 103% | 135% | 106% | 115% | 102% | 117% | 105% | 101% | 93.1% | 110% | 93.9% | 105% |
| Nc1nc(Cl)nc2c1ncn2[C@@H]1O[C@H](CO)[C@@H](O)[C@@H]1F [Clofarabine] (1 nM) | 100% | 80.9% | 109% | 102% | 96.2% | 101% | 114% | 132% | 121% | 94.4% | 97.5% | 88% | 112% | 117% | 70.8% | 81.3% | 102% | 95.5% |
